According to publication doi:10.1101/2022.05.30.493970:
Read-outs that look alike come from different tables or passages of the source. Results are given in words; binding and its absence hold for the method and conditions named.

Protein sequences, listed by entry. Tags and fused reporters are not part of them. Lines headed by an entry give the natural chain unless they say otherwise; changes in a name come on top.
UniProt P07320, whole entry: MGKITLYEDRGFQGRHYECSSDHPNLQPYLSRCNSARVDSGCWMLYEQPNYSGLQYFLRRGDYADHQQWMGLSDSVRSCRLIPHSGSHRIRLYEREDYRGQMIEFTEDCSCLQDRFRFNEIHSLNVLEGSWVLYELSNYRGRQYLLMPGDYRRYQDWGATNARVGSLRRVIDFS

Assays:
GammaD-crystallin WT [1] = target: GammaD-crystallin WT (UniProt P07320); test: SEC
GammaD-crystallin WT [2] = target: GammaD-crystallin WT (UniProt P07320); test: SEC; remark: listed apart in the source

binding (GammaD-crystallin WT [1])	binding (GammaD-crystallin WT [2])	Binder
no binding	–	HSPB5 WT (full length) (protein, UniProt P02511 1-175) MDIAIHHPWIRRPFFPFHSPSRLFDQFFGEHLLESDLFPTSTSLSPFYLRPPSFLRAPSWFDTGLSEMRLEKDRFSVNLDVKHFSPEELKVKVLGDVIEVHGKHEERQDEHGFISREFHRKYRIPADVDPLTITSSLSSDGVLTVNGPRKQVSGPERTIPITREEKPAVTAAPKK
no binding	no binding	HSPB5 D109H (protein, UniProt P02511 1-175) MDIAIHHPWIRRPFFPFHSPSRLFDQFFGEHLLESDLFPTSTSLSPFYLRPPSFLRAPSWFDTGLSEMRLEKDRFSVNLDVKHFSPEELKVKVLGDVIEVHGKHEERQHEHGFISREFHRKYRIPADVDPLTITSSLSSDGVLTVNGPRKQVSGPERTIPITREEKPAVTAAPKK
no binding	no binding	HSPB5 R120G (protein, UniProt P02511 1-175) MDIAIHHPWIRRPFFPFHSPSRLFDQFFGEHLLESDLFPTSTSLSPFYLRPPSFLRAPSWFDTGLSEMRLEKDRFSVNLDVKHFSPEELKVKVLGDVIEVHGKHEERQDEHGFISREFHGKYRIPADVDPLTITSSLSSDGVLTVNGPRKQVSGPERTIPITREEKPAVTAAPKK
